Assay results from paper PMC7289602, “Measuring ligand-cell surface receptor affinities with axial line-scanning fluorescence correlation spectroscopy” (eLife, 2020).
Results are given in words; binding and its absence hold for the method and conditions named. A result given as binding can be weak or reduced; the word gives no strength. Tags and fused reporters may be left off the sequences shown.

Columns and labels:
[1] = molecular target: xKremen2-mCherry co-expressed with unlabeled LRP6 (Xenopus laevis | human); experiment: dual-color spinning disk confocal imaging of ligand staining on live cells; live NCI-H1703 cells transiently expressing xKremen2-mCherry, without or with unlabeled LRP6, in conditioned medium with four DKK1-eGFP concentrations
[2] = molecular target: (Xenopus laevis) xKremen2-mCherry (Xenopus laevis); experiment: as above

B1: human Dickkopf1 fused to eGFP (DKK1-eGFP) (ligand, UniProt O94907 32-266, looked up)
chain: TLNSVLNSNAIKNLPPPLGGAAGHPGSAVSAAPGILYPGGNKYQTIDNYQPYPCAEDEECGTDEYCASPTRGGDAGVQICLACRKRRKRCMRHAMCCPGNYCKNGICVSSDQNHFRGEIEETITESFGNDHSTLDGYSRRTTLSSKMYHTKGQEGSVCLRSSDCASGLCCARHFWSKICKPVLKEGQVCTKHRRKGSHGLEIFQRCYCGEGLSCRIQKDHHQASNSSRLHTCQRH
notes: Dickkopf1 (DKK1), human; also called hDKK1-eGFP
With B1 the binding [1] was “binds” and the binding [2] was “binds”.
